Assay results taken from patent US10183050B2, “Bean leaves or bean stems having high isoflavone derivatives content and method for preparing same” (INDUSTRY-ACADEMIC COOPERATION FOUNDATION GYEONGSANG …, priority 2013, dated 2019).

Assays:
[1] = tested on: soybean leaves; assay: UPLC quantitative analysis of isoflavone derivatives in soybean leaves treated with ethephon after harvest; parameters: species or system Glycine max; conditions: soybean leaves treated with 50 ppm ethephon after harvest
[2] = tested on: soybean stems; assay: HPLC quantitative analysis of isoflavone derivatives in soybean stems treated with ethylene; parameters: species or system Glycine max; conditions: ethanol fraction of soybean stems treated with 100-1000 ppm of ethylene
[3] = tested on: soybean leaves; conditions: soybean leaves as reported in the literature, no ethylene or ethephon treatment; cited from earlier work

Row | Compound | Content, 1 day after treatment [1] [µg/g] | Content, 2 days after treatment [1] [µg/g] | Content, 3 days after treatment [1] [µg/g] | Content, After treatment [2] [µg/g] | content in soybean leaves [3]
1 | O=C(O)CC(=O)OCC1O[C@@H](Oc2ccc3c(=O)c(-c4ccc(O)cc4)coc3c2)C(O)C(O)[C@@H]1O (single isomer, unassigned) [Malonyldaidzin (3), malonyldaidzin] | 2312.1 ± 33.4 | 3337.9 ± 56.2 | 3528.4 ± 94.1 | 3982.0 ± 129.2 | undetected
2 | O=c1c(-c2ccc(O)cc2)coc2cc(O[C@@H]3OC(CO)[C@@H](O)C(O)C3O)ccc12 (single isomer, unassigned) [Daidzin (1), daidzin] | 1280.4 ± 22.9 | 1551.2 ± 31.4 | 1991.5 ± 51.8 | 1931.7 ± 71.2 | undetected
3 | O=c1c(-c2ccc(O)cc2)coc2cc(O)cc(O)c12 [Genistein, genistein] |  |  |  |  | undetected
4 | O=c1c(-c2ccc(O)cc2)coc2cc(O)ccc12 [Daidzein, daidzein] |  |  |  |  | undetected
5 | O=c1c(-c2ccc(O)cc2)coc2cc(O[C@@H]3OC(CO)[C@@H](O)[C@H](O)C3O)cc(O)c12 (single isomer, unassigned) [Genistin (2), genistin] | 1316.7 ± 27.5 | 1803.4 ± 48.2 | 2098.7 ± 56.2 | 2004.6 ± 86.1 | 90 µg/g
6 | O=C(O)CC(=O)OCC1O[C@@H](Oc2cc(O)c3c(=O)c(-c4ccc(O)cc4)coc3c2)C(O)C(O)[C@@H]1O (single isomer, unassigned) [Malonylgenistin (4), malonylgenistin] | 2347.4 ± 37.2 | 3480.6 ± 72.4 | 3909.2 ± 91.7 | 4033.1 ± 156.5 | 310 µg/g
